The list shows only some results of the screen, not a fair sample: it gathers tests that were run many times, whatever their T/C, doses with no T/C, and many T/C values between a quarter and a half above the control. Further doses and runs are listed elsewhere. T/C gives the treated animals as a percentage of the vehicle group. Some entries give survivors of the animals treated and no T/C: the source files T/C as zero there, which appears to mark a toxic dose or a test without result, not a measured value. Some doses without a T/C left all or most animals alive at the check, yet need not have been tolerated: survival well below the control is almost never listed, so the zero probably covers shortened survival too. Counts of survivors are from the toxicity check (mostly the fifth day) where no day follows; animals may have died later. Schedules are NCI's codes, read here as Q, the interval in days (D) or hours (H), X, the number of doses. Some entries hold several experiments; their values stand side by side, smallest first. Where survival is the endpoint, the PubChem record calls one and a half times the control and up active, and a quarter to a half above the control has no call in these data; cut-offs in other NCI protocols can differ. Some T/C values are followed by the survivors on the day toxicity was checked, most often the fifth; without a count, all were alive then. Signs of the kind (2×) say how often a value occurs here.
System: CD2F1 mice, L1210 leukemia ip, survival T/C
Experiment: NCI In Vivo Anticancer Drug Screen. Data for tumor model L1210 Leukemia (intraperitoneal) in CD2F1 (CDF1) mice
Conditions: higher T/C = longer survival
Summary of the method: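 Ratio T/C, where T is the treated-group value and C the vehicle-dosed control value, from mice implanted with a transplantable tumor.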

How did the survivor count (T/C endpoint: mean survival time, dose: 100.0 mg/kg/injection, schedule: Q01DX009 (ip), vehicle: saline) turn out when NCCCCC1(CCCCN)OCCO1 was run?
The survivor count was 2 of 6.

What about the survivor count (T/C endpoint: mean survival time, dose: 100.0 mg/kg/injection, schedule: Q04DX002 (ip), vehicle: saline) of the same molecule?
Its survivor count is 0 of 3.

And the survivor count (T/C endpoint: mean survival time, dose: 200.0 mg/kg/injection, schedule: Q01DX001 (ip), vehicle: saline with Tween-80)?
Its survivor count is 0 of 6.

What about the survivor count (T/C endpoint: mean survival time, dose: 400.0 mg/kg/injection, schedule: Q01DX001 (ip), vehicle: saline with Tween-80) of the same molecule?
Its survivor count is 0 of 6.

CC(C)(C)OC(=O)NNC(c1ccccc1)c1ccccc1 was tested. Which survivor count (T/C endpoint: mean survival time, dose: 400.0 mg/kg/injection, schedule: Q01DX009 (ip), vehicle: saline with Tween-80) did it give?
The survivor count was 4 of 6.

Nc1ccc(Cn2ccc3c4c(N)nc(N)nc4ccc32)cc1 was tested. Which T/C (T/C endpoint: mean survival time, dose: 2.5 mg/kg/injection, schedule: Q01DX009 (ip), vehicle: saline with Tween-80) did it give?
The T/C was 106 (2×), 108, 116 % of control.

And the T/C (T/C endpoint: mean survival time, dose: 5.0 mg/kg/injection, schedule: Q01DX009 (ip), vehicle: saline with Tween-80)?
The T/C was 107, 112, 113, 115 [5 of 6 alive], 118 % of control.

What about the T/C (T/C endpoint: mean survival time, dose: 10.0 mg/kg/injection, schedule: Q01DX009 (ip), vehicle: saline with Tween-80) of the same molecule?
Its T/C is 112 (2×), 120, 124, 137 % of control.

And the T/C (T/C endpoint: mean survival time, dose: 20.0 mg/kg/injection, schedule: Q01DX009 (ip), vehicle: saline with Tween-80)?
The T/C was 118, 128, 131, 139, 159 % of control.

And the survivor count (T/C endpoint: mean survival time, dose: 40.0 mg/kg/injection, schedule: Q01DX009 (ip), vehicle: saline with Tween-80)?
Its survivor count is 1 of 6, 2 of 6, 3 of 6, 4 of 6.

And the T/C (T/C endpoint: median survival time, dose: 10.0 mg/kg/injection, schedule: Q01DX009 (ip), vehicle: saline with Tween-80)?
Its T/C is 126 % of control.

And the T/C (T/C endpoint: median survival time, dose: 20.0 mg/kg/injection, schedule: Q01DX009 (ip), vehicle: saline with Tween-80)?
Its T/C is 134 % of control.

And the survivor count (T/C endpoint: median survival time, dose: 40.0 mg/kg/injection, schedule: Q01DX009 (ip), vehicle: saline with Tween-80)?
Its survivor count is 2 of 6.

What does the source list for [N-]=[N+]=CC(=O)NCC(=O)NCCO?
T/C (T/C endpoint: mean survival time, dose: 400.0 mg/kg/injection, schedule: Q01DX009 (ip), vehicle: other): 128 and 129 % of control; T/C (T/C endpoint: mean survival time, dose: 600.0 mg/kg/injection, schedule: Q01DX009 (ip), vehicle: other): 135 % of control; T/C (T/C endpoint: mean survival time, dose: 800.0 mg/kg/injection, schedule: Q01DX009 (ip), vehicle: other): 135 and 136 % of control

For CCCCCOC(=O)CC(N)C(=O)OCCCCC (centres undefined), which survivor count (T/C endpoint: mean survival time, dose: 400.0 mg/kg/injection, schedule: Q04DX003 (ip), vehicle: saline with Tween-80) is on record?
Its survivor count is 3 of 6.

[CH3][Sn]1([CH3])[O]C2C(CO)OC(n3ccc(N)nc3=O)C2[O]1 (centres undefined) was tested. Which survivor count (T/C endpoint: mean survival time, dose: 100.0 mg/kg/injection, schedule: Q01DX005 (ip), vehicle: other) did it give?
Its survivor count is 0 of 6.

What about the survivor count (T/C endpoint: mean survival time, dose: 200.0 mg/kg/injection, schedule: Q01DX005 (ip), vehicle: other) of the same molecule?
Its survivor count is 0 of 6.

Which survivor count (T/C endpoint: mean survival time, dose: 200.0 mg/kg/injection, schedule: Q04DX002 (ip), vehicle: saline with Tween-80) does the source give for CCC(O)(c1ccccc1)C(O)(CC)c1ccccc1 (centres undefined) here?
The survivor count was 0 of 3.

What about the survivor count (T/C endpoint: mean survival time, dose: 400.0 mg/kg/injection, schedule: Q04DX002 (ip), vehicle: saline with Tween-80) of the same molecule?
Its survivor count is 0 of 3.

Which T/C (T/C endpoint: median survival time, dose: 120.0 mg/kg/injection, schedule: Q01DX005 (ip), vehicle: Klucel (hydroxypropylcellulose) (HPC)) does the source give for COC(=O)c1ccc(N=NN(C)COC(C)=O)cc1 here?
Its T/C is 137 % of control.

What does the source list for CCCCOC(=O)c1cc([N+](=O)[O-])c(Sc2ncnc3nc[nH]c23)c([N+](=O)[O-])c1?
T/C (T/C endpoint: mean survival time, dose: 30.0 mg/kg/injection, schedule: Q01DX005 (ip), vehicle: other): 138 % of control; T/C (T/C endpoint: mean survival time, dose: 60.0 mg/kg/injection, schedule: Q01DX005 (ip), vehicle: other): 149 % of control

Source: PubChem BioAssay AID256 (DTP/NCI, 2004)
